PubChem BioAssay AID1259254 | NCATS – 2017

- Aim: 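Finding genes that stop cells copying their DNA twice in one cycle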 (primary screen)
- Cell system: human HCT116 colorectal cancer cells
- Reagent: single siRNA against human genes
- Duration: 3 days
- Read-out: 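Imaged Hoechst DNA stain sorts each cell into a cycle phase by DNA amount; per plate, G2 fraction set to 0% for non-targeting and 100% for GMNN siRNA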
- Scale: G2 robust z-score: higher = more G2 cells, more excess DNA replication
- Active means: 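An siRNA counts as active if its G2 robust z-score lies at least 5 MADs above the screen median; here such calls match roughly 38% of GMNN control or more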
The whole screen tested about 59,000 reagents; this is a part drawn at random. Over the whole deposit, about 1,550 (2.6%) are marked active. 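G2 share is only a proxy for re-replication; each gene was hit by three separate siRNAs, and active genes were retested.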 The numbers tell different reagents against one gene apart. Not all columns of the deposit are shown. Not given: the amount of reagent.

The first 2 entries, ahead of the listing:
| target | reagent | G2 robust z-score | Call |
| --- | --- | --- | --- |
| TLX1 (T cell leukemia homeobox 1) | 1 | -0.646 | inactive |
| TLX1 (T cell leukemia homeobox 1) | 2 | 7.9 | active |

The listing, from the start:
| target | reagent | G2 robust z-score | Call |
| --- | --- | --- | --- |
| TLX1 (T cell leukemia homeobox 1) | 1 | -0.646 | inactive |
| TLX1 (T cell leukemia homeobox 1) | 2 | 7.9 | active |
| TLX1 (T cell leukemia homeobox 1) | 3 | 0.611 | inactive |
| GABPA (GA binding protein transcription factor subunit alpha) | 1 | 0.202 | inactive |
| GABPA (GA binding protein transcription factor subunit alpha) | 2 | -0.967 | inactive |
| GABPA (GA binding protein transcription factor subunit alpha) | 3 | -0.527 | inactive |
| COX14 (cytochrome c oxidase assembly factor COX14) | 1 | 1.07 | inactive |
| COX14 (cytochrome c oxidase assembly factor COX14) | 2 | -0.625 | inactive |
| COX14 (cytochrome c oxidase assembly factor COX14) | 3 | -0.605 | inactive |
| RPRD1A (regulation of nuclear pre-mRNA domain containing 1A) | 1 | -0.0446 | inactive |
| RPRD1A (regulation of nuclear pre-mRNA domain containing 1A) | 2 | -0.282 | inactive |
| RPRD1A (regulation of nuclear pre-mRNA domain containing 1A) | 3 | 0.531 | inactive |
| DTL (denticleless E3 ubiquitin protein ligase adapter) | 1 | 3.52 | inactive |
| DTL (denticleless E3 ubiquitin protein ligase adapter) | 2 | 6.61 | active |
| DTL (denticleless E3 ubiquitin protein ligase adapter) | 3 | 1.2 | inactive |
| PLOD1 (procollagen-lysine,2-oxoglutarate 5-dioxygenase 1) | 1 | 1.51 | inactive |
| PLOD1 (procollagen-lysine,2-oxoglutarate 5-dioxygenase 1) | 2 | -0.604 | inactive |
| PLOD1 (procollagen-lysine,2-oxoglutarate 5-dioxygenase 1) | 3 | 4.59 | inactive |
| NHSL1 (NHS like 1) | 1 | 0.051 | inactive |
| NHSL1 (NHS like 1) | 2 | 0.673 | inactive |
| NHSL1 (NHS like 1) | 3 | 0.000493 | inactive |
| KCNQ2 (potassium voltage-gated channel subfamily Q member 2) | 1 | 1.07 | inactive |
| KCNQ2 (potassium voltage-gated channel subfamily Q member 2) | 2 | -0.89 | inactive |
| KCNQ2 (potassium voltage-gated channel subfamily Q member 2) | 3 | -0.8 | inactive |
| UGP2 (UDP-glucose pyrophosphorylase 2) | 1 | 9.55 | active |
| UGP2 (UDP-glucose pyrophosphorylase 2) | 2 | 0.188 | inactive |
| UGP2 (UDP-glucose pyrophosphorylase 2) | 3 | -0.0786 | inactive |
| FAM199X (family with sequence similarity 199, X-linked) | 1 | 0.246 | inactive |
| FAM199X (family with sequence similarity 199, X-linked) | 2 | 0.496 | inactive |
| FAM199X (family with sequence similarity 199, X-linked) | 3 | 0.636 | inactive |
